Results are given in words; binding and its absence hold for the method and conditions named. Some binding calls cover weakened binding; strength is not graded here.

Results on 7 molecules are retold here after patent publication US20190008955A1 (SORRENTO THERAPEUTICS, published 2019).

For one assay, the target named is T1, human CXCR3 (human, UniProt P49682 1-368).
T1 sequence (looked up): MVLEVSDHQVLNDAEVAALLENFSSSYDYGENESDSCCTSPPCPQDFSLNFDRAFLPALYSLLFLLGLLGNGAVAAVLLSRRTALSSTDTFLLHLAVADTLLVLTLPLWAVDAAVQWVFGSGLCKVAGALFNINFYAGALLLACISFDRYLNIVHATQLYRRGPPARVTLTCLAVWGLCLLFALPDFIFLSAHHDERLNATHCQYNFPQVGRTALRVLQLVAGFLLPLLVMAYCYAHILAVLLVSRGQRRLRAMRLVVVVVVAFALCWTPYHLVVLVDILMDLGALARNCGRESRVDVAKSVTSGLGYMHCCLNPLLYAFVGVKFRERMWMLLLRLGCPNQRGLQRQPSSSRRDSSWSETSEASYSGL
The experiment in a line: flow cytometry on CHO-CXCR3 cells against control CHO cells.

Assay [1] has as its target human CXCR3 (human) (UniProt P49682). The description is as above.
For assay [2] the target is unchanged. The assay can be described thus: flow cytometry on CHO-CXCR3 cells, binding over time after washing.

B1: C4 (antibody, V domains shown)
VH: QVQLVQSGAEVKKPGSSVKVACKASGGTFSHSAISWVRQAPGQGLEWIGRTIPTLEMASYAQKFQGRVTISADKSTRTGYMELRDLRSEDTAVYYCSTQTPSYTDHWGQGTLVTVSS
VL: EIVLTQSPLSLPVTLGQPASISCNSSQSLLHRDGHTYLHWFQQRPGQSPRRLIYKVSNRDSGVPDKFSGSGSGTEFTLKISRVEAEDVGVYYCMQGTHWPLAFGGGTKLEIK
As to B1, the binding result with human CXCR3 was “binds”.

B2: 32B12 (antibody, V domains shown)
VH: EVQLVQSGGGLVKSGRSLRLSCTVSGFTFGNSAMSWFRQAPGKGLEWVSSISSSSSYIYYADSVKGRFTISRDNAKNSLYLQMNSLRAEDTAVYYCARDLSGRGYSYLNYWGQGTLVTVSS
VL: SYELTQPPSVSAAPGQKVTISCSGSSSNIGNSYVSWFQQFPGTAPKLVIYENNKRPSGIPDRFSGSKSGTSATLGITGLQTGDEADYYCGTWDSSLSGRVFGGGTKLTVL
notes: Described as a fully human antibody of an IgG class and detected with anti-human IgG (gamma-chain specific); also called anti-CXCR3 antibody 32B12; clone 32B12
B2: the binding entry in the assay with human CXCR3 (human) [1] and with human CXCR3 (human) [2] was “binds” in each case.

B3: 32D12 (antibody, V domains shown)
VH: EVQLLESGGGLVQPGGSQRLSCAASGFTFSSYPMTWVRQAPGKGLEWVSAISDGGSGTYYADSVKGRFTISRDNSKNTLYLQMNSLRAEDTAIYYCARYKMGGSYRGLDDWGQGTLVTVSS
VL: LPVLTQPASVSGSPGQPITISCTGTSGNIGSYNYVSWYQQHPGKAPRLLIYDVSLRPSGISSHFSGSKSGNTASLTISGLQAEDEAEYFCLSWTSDKTYVFGSGTKLTVL
notes: Fully human IgG class
For B3, in the assay with human CXCR3 (human) [1], the binding result is recorded as “binds”.

B4: H1 (antibody, V domains shown)
VH: EVQLLESGGGVVQPGRSLRLSCAASGFTFRYYGMHWVRQAPGKGLEWVAAIRNDGSNEYYADSVKGRFTISRDNSKNTLYLEMNSLRAEDTSVYHCARDGFYRGSPYYFDSWGQGTLVTVSS
VL: QAGLTQPPSVSAAPGQKVTISCSGSSSNIGNNYVSWYQQLPGTAPKLLIYDNKRRPSGMPDRFSGSKSGTSATLGITGLQTGDEADYYCGTWDSSLSAVVFGGGTKLTVL
For B4, in the assay with human CXCR3, the binding result is recorded as “binds”.

B5: 3C11 (antibody, V domains shown)
VH: EVQLVESGGGLVQPGGSLRLSCSASGFTFSSYAMHWVRQAPGKGLEYVSAISSNGGSTYYADSVKGRFTISRDNSKNTLYLQMSSLRAEDTAVYYCVKSIAAAGTQYYYYYMDVWGKGTTVTVSS
VL: DIQLTQSPSSLSASVGDRVTITCRASQGIGTYLAWFQQKPGKVPKPLIYAASTLQSGVPSRFSGSGSGADFTLTISSLQPEDVATYYCQKYNSVPQTFGQGTKVEIK
notes: Fully human IgG class
On to B5, for which the binding entry in the assay with human CXCR3 (human) [1] was “binds”.

B6: 3A11 (antibody, V domains shown)
VH: QVQLVQSGGGLVKPGGSLRLSCAASGFTFTSSGMNWVRQAPGKGLEWVAYIFPNGKTLYPESVKGRFIITRDNAEKSLFLEMNNLRAEDMGVYYCAIDLNWGSGYWGQGTLVTVSS
VL: SYVLTQPPSVSKGLRQTATLTCTGNINNVGNVGATWLQQHQGHPPKLLSDRNNNRPSGISERFSASRSGNAASLTITGLQPEDEADYYCSAWDTSLGAWVFGGGTKLTVL
notes: Fully human IgG class
For B6, the binding entry with human CXCR3 (human) [1] was “binds”.

B7: 3A3 (antibody, V domains shown)
VH: QVQLVQSGAEVKKPGSSVKVSCKASGGTFNRYAFSWVRQAPGQGPELMGRIMPMFDIASYAQKFQGRLTITADKSTSTAYMELSSLRSDDTAVYYCTQVSGDSDYWGPGTLVTVSS
VL: DIVMTQTPLSLPVTLGQPASISCRSSQSLVHNDGNTYLNWFHQRPGQSPRRLIYKVSNRDFGVPDRFSGSGSGTDFTLRISRVEAEDVGVYYCMQGSHWPLTFGGGTKVEIK
notes: Fully human IgG class
For B7, the binding result in the assay with human CXCR3 (human) [1] is listed as “binds”.
